For three molecules, binding results are on record in paper PMC7736794.

Substitutions are numbered along the chain they refer to. These are yes or no findings as the source states them, for the method shown. Binding seen in cells or lysates may run through a third protein. Some entries that bind do so weakly or less than the wild type. For some assays here: Where a sequence is shown, tags or fusion partners need not be part of it.

Assay [1] concerns the target T1, USP36 (endogenous, HEK293T) (human (endogenous in HEK293T)) (UniProt Q9P275).
T1 sequence: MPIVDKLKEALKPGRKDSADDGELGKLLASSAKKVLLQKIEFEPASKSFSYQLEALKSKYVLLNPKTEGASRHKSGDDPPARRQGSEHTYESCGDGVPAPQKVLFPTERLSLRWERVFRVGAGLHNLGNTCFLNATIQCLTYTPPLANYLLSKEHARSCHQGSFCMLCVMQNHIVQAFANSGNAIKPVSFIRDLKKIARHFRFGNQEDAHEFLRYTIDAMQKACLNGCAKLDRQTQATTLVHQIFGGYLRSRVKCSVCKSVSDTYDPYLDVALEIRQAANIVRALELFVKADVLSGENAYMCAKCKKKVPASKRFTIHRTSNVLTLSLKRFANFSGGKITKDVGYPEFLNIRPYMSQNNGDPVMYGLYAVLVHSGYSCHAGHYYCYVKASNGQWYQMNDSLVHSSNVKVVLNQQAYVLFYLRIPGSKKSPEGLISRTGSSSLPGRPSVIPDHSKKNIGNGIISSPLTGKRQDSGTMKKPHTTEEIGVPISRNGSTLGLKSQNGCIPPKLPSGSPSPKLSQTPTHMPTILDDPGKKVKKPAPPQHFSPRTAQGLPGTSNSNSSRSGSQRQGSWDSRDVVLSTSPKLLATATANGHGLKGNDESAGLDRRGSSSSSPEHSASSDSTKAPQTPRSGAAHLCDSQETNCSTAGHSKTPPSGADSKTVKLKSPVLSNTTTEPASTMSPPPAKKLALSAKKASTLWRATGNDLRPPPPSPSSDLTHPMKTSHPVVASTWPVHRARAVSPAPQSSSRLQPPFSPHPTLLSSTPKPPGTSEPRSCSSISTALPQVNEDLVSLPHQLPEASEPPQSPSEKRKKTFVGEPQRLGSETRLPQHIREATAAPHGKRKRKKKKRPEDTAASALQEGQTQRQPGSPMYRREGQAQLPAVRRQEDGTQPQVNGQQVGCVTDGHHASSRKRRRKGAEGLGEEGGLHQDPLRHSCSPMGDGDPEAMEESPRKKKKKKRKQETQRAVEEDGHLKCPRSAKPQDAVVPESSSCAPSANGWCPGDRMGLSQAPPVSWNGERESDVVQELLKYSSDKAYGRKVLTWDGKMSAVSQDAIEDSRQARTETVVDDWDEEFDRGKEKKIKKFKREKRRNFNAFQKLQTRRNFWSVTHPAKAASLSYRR
The assay can be described thus: co-IP; HEK293T lysate (NETN buffer, 500 mM NaCl, 0.5% NP-40) precipitated with anti-USP36 antibody or control IgG and agarose beads overnight at 4°C; blotted for PrimPol.

The next assay concerns the target T2, Flag-USP36 wild type (UniProt Q9P275).
T2 sequence: T1 sequence
Kind of assay: co-IP; lysates of HEK293T or USP36 knock-down HEK293T cells transfected with Flag-USP36 constructs (with or without Myc-PrimPol), precipitated with anti-Flag agarose beads, NETN buffer; cells untreated or treated with HU (10 mM, 8 h) or MG132 (50 μM, 3 h).

A further assay addresses T3, Flag-USP36 1-420 (UniProt Q9P275).
T3 sequence: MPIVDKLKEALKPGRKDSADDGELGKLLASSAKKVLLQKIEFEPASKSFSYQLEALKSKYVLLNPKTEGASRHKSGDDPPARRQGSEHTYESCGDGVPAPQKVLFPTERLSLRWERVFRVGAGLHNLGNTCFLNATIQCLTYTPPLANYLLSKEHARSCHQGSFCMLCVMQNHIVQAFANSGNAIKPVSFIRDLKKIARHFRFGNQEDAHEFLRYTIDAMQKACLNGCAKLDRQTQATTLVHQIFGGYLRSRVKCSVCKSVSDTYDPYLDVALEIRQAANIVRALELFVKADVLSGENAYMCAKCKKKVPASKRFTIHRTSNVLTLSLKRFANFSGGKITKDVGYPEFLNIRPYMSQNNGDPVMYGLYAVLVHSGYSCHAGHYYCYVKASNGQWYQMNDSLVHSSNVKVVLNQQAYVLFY
The description is as above.

The next assay addresses T4, Flag-USP36 1-800 (UniProt Q9P275).
T4 sequence: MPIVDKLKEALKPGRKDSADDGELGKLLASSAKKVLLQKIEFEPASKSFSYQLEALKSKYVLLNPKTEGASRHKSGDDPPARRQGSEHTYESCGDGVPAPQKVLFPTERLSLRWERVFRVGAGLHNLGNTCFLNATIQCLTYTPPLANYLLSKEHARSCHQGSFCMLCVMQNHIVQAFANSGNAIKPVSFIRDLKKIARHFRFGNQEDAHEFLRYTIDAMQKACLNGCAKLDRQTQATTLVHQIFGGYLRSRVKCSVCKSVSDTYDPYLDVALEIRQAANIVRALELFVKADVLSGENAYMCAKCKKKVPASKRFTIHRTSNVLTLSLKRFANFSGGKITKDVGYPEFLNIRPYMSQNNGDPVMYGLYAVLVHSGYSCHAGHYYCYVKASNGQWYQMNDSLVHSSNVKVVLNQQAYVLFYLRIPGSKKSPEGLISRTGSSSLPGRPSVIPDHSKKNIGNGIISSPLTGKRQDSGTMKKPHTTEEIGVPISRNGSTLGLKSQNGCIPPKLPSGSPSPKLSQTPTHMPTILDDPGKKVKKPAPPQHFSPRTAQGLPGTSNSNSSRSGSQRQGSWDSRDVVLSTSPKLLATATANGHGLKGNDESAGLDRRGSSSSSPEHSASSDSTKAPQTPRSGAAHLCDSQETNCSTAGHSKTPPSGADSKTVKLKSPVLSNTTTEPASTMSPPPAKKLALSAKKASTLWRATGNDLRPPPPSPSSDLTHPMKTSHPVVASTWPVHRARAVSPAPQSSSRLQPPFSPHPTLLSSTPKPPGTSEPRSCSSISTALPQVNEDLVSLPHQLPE
Described as above.

The target of assay [2] is T5, Flag-USP36-WT-K329R/K338R (2KR) (UniProt Q9P275).
T5 sequence: T1 sequence with K329R, K338R
The description is as above.

Assay [3] has as its target T6, USP36 (endogenous, OVCAR8) (human (endogenous in OVCAR8)) (UniProt Q9P275).
T6 sequence: T1 sequence
Kind of assay: proximity ligation; Duolink in situ PLA with USP36 and PrimPol antibodies in fixed OVCAR8 cells (endogenous proteins, or USP36 knock-down cells transfected with USP36 WT or 2KR); untreated or HU (10 mM, 4 h) or UV (4 h).

Assay [4] concerns the target T7, USP36-WT 2KR mutant, transfected in OVCAR8 (UniProt Q9P275).
T7 sequence: T1 sequence with K329R, K338R
The assay is described as above.

B1: PrimPol (endogenous, HEK293T) (enzyme, UniProt Q96LW4 1-560)
chain: MNRKWEAKLKQIEERASHYERKPLSSVYRPRLSKPEEPPSIWRLFHRQAQAFNFVKSCKEDVHVFALECKVGDGQRIYLVTTYAEFWFYYKSRKNLLHCYEVIPENAVCKLYFDLEFNKPANPGADGKKMVALLIEYVCKALQELYGVNCSAEDVLNLDSSTDEKFSRHLIFQLHDVAFKDNIHVGNFLRKILQPALDLLGSEDDDSAPETTGHGFPHFSEAPARQGFSFNKMFTEKATEESWTSNSKKLERLGSAEQSSPDLSFLVVKNNMGEKHLFVDLGVYTRNRNFRLYKSSKIGKRVALEVTEDNKFFPIQSKDVSDEYQYFLSSLVSNVRFSDTLRILTCEPSQNKQKGVGYFNSIGTSVETIEGFQCSPYPEVDHFVLSLVNKDGIKGGIRRWNYFFPEELLVYDICKYRWCENIGRAHKSNNIMILVDLKNEVWYQKCHDPVCKAENFKSDCFPLPAEVCLLFLFKEEEEFTTDEADETRSNETQNPHKPSPSRLSTGASADAVWDNGIDDAYFLEATEDAELAEAAENSLLSYNSEVDEIPDELIIEVLQE
B1: the binding entry (in assay [1]; with Flag-USP36 wild type) was “binds” throughout.

B2: Myc-PrimPol WT (enzyme, UniProt Q96LW4 1-560)
chain: B1 chain
For B2, the binding result (with Flag-USP36 1-420; in the assay with Flag-USP36 1-800; with Flag-USP36 wild type; in assay [2]) was “binds” each time.

B3: PrimPol (endogenous, OVCAR8) (enzyme, UniProt Q96LW4 1-560)
chain: B1 chain
As to B3, the binding entry in assay [3] and in assay [4] was “binds” in each case.
